Here are results for 43 compounds from PubChem BioAssay AID662 (National Center for Advancing Translational Sciences (NCATS), 2007).

Molecules are shown by their SMILES. Values joined by “and” are separate entries in the source; they are usually repeats but may differ in a detail not shown here. Equal entries are not always repeated. This is one part of the list. The main result of the screen is listed elsewhere. These columns were measured beside it and carry no call. Compounds called inactive in the main read-out are mostly missing here. Words in brackets tell the shape of the fitted curve; partial curves, single points and poor fits give uncertain potencies.

The nature of the experiment: Cell signaling CRE-BLA (Fsk stim). The note with it: CHO CRE-bla reporter (cAMP response element driving beta-lactamase), forskolin EC10, beta-lactamase ratio; measured here: 460 nm blue channel. The procedure, abridged: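 AC50 values, positive or negative, reflect shifts in EC10 NKH 477-induced CRE-bla reporter activity in CHO cells. Incubation lasted 3 h at 37 °C before CCF4 substrate (2 h, room temperature) and ratiometric 460/530 nm reading.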
In general, AC50 refers to the midpoint of the concentration-response curve, whichever way the signal moves. On to `COC(=O)c1[nH]c2cc(OC)ccc2c1N`, for which the AC50 is 3.98 µM [falling, partial curve].

As for `COc1ccc(-n2c(=O)c(-c3cccc(C#N)c3)nc3cnc(N4CCNCC4)nc32)cc1`, the AC50 is 12.6 µM [rising, partial curve].

On to `CCOc1ccc(N2C(=O)c3cccnc3C2Nc2ccc(C)cc2)cc1` (stereo not drawn), for which the AC50 was 0.01 µM [rising, full curve].

On to `CCOC(=O)c1c(C)[nH]c(C(=O)COc2ccc3c(c2)OCO3)c1C`, for which the AC50 was 10 µM [rising, single point].

Regarding `COc1ccc(CC(=O)Nc2ccc3c(c2)CCC3)cc1S(=O)(=O)N1CCOCC1`, the AC50 is 0.631 µM [falling, full curve, poor fit].

Regarding `CNc1ncnc2ccc(-c3ccccc3CN(C)C)cc12`, the AC50 is 7.94 µM [rising, partial curve].

As for `O=C(Nc1nc2c(s1)CCc1ccccc1-2)c1ccco1`, the AC50 is 10 µM [rising, single point].

In the case of `CCOC(=O)C1[C@H]2C(=O)N(CCCOC)C[C@]23C=C[C@H]1O3` (stereo partly drawn), the AC50 is 12.6 µM [falling, partial curve].

Regarding `Nc1sccc1C(=O)c1ccc(Cl)cc1`, the AC50 was 25.1 µM [falling, single point].

`CCCNc1nc2c(c(=O)[nH]c(=O)n2C)n1CCC(C)C`: the AC50 is 10 µM [rising, partial curve].

Take `COC(=O)c1ccccc1NC(=O)c1ccc(COc2ccccc2)o1`: the AC50 is 5.01 µM [rising, full curve].

Regarding `COc1ncc2nc(CCc3ccccc3)c(=O)n(CCc3ccccc3)c2n1`, the AC50 was 25.1 µM [rising, single point].

Turning to `CCCCCSc1nc2c(c(=O)[nH]c(=O)n2C)n1CC`, the AC50 was 6.31 µM [rising, partial curve].

On to `O=C(Nc1ccc2c(c1)OCO2)C1CCCN(c2nc3ccccc3s2)C1` (stereo not drawn), for which the AC50 is 0.0501 µM [falling, full curve, poor fit].

`CCn1c(=O)c2cc(C(=O)NCCN3CCOCC3)sc2c2ccccc21`: the AC50 is 1.58 µM [rising, partial curve].

Take `C=C(C)c1nc(N)nc(N)n1`: the AC50 was 0.794 µM [falling, full curve].

Regarding `O=C(OC1CCOC1=O)c1cncc(Br)c1` (stereo not drawn), the half-maximal activity concentration (AC50) was 2.51 µM [falling, single point].

With `CCC(=O)N(Cc1cc2cc(OC)ccc2[nH]c1=O)c1cc(C)ccc1C`, the AC50 is 12.6 µM [rising, single point].

As for `COC(=O)c1cccc(NC(=O)CN2CCN(c3ccc(OC)cc3)CC2)c1`, the AC50 is 10 µM [rising, single point].

For `N/C(=N/O)c1nc(N2CCCCC2)nc(N2CCCCC2)n1`, the AC50 was 0.316 µM [falling, partial curve].

With `COc1ccc(N/C(=N\c2nc(C)cc(C)n2)NC(C)=O)cc1OC`, the AC50 was 5.01 µM [rising, single point].

With `CC(C)Cn1c(SC(C)C(=O)Nc2ccc3c(c2)OCCO3)nc2ccccc2c1=O` (stereo not drawn), the AC50 was 3.98 µM [rising, full curve].

For `c1ccc(Nc2cc(-c3ccccc3)nc3ncnn23)cc1`, the AC50 is 10 µM [rising, partial curve].

`CCN(CC)CCn1c(-c2ccccc2)nc2c(NC3CCCCC3)nc(C)nc21`: the half-maximal activity concentration (AC50) was 10 µM [rising, partial curve].

In the case of `CC(C)OC(=O)c1cc(NC(=O)C2C3CCC(O3)C2C(=O)O)cc(C(=O)OC(C)C)c1` (stereo not drawn), the AC50 is 12.6 µM [rising, partial curve].

Turning to `CC(=O)Oc1ccc(/C=C\C(=O)C[C@@H]2O[C@@H](Oc3cc(OC(C)=O)c4c(c3)O[C@@H](c3ccc(OC(C)=O)cc3)CC4=O)[C@H](OC(C)=O)[C@H](OC(C)=O)[C@@H]2OC(C)=O)cc1`, the AC50 was 25.1 µM [falling, partial curve, poor fit].

On to `COCCn1c(=O)c(-c2ccccc2)nc2cnc(N3CCOCC3)nc21`, for which the AC50 was 10 µM [rising, partial curve].

For `O=C(Nc1ccc2c(c1)OCCO2)C1CCCN(c2ncccn2)C1` (stereo not drawn), the AC50 is 10 µM [rising, single point].

Regarding `CC1=C(C(=O)OC2CCCCC2)C(c2cccnc2)n2nnnc2N1` (stereo not drawn), the AC50 was 0.251 µM [rising, full curve, poor fit].

Regarding `O=C(NC1=NCCS1)c1cc(-c2ccccc2)nn1-c1ccccc1`, the AC50 is 0.126 µM [falling, full curve].

As for `CCCc1nc(SCC(=O)Nc2ccccc2OC)c2c(=O)n(C)c(=O)n(C)c2n1`, the AC50 was 2 µM [rising, full curve].

As for `Cc1ccc(C)c(C(C)NC(=O)C2C3CCC(O3)C2C(=O)O)c1` (stereo not drawn), the AC50 was 10 µM [rising, partial curve].

On to `CCOC(=O)C1=C(C)Nc2ncnn2C1/C=C/c1ccccc1` (stereo not drawn), for which the AC50 was 10 µM [rising, partial curve].

As for `CCn1c(C2CC(=O)N(c3cc(C)cc(C)c3)C2)nc2ccccc21` (stereo not drawn), the AC50 is 10 µM [rising, single point].

For the compound `CC(C)OC(=O)c1cccc(C(=O)OCc2ccco2)n1`, the concentration at half-maximal activity (AC50) was 12.6 µM [falling, single point].

Turning to `O=C(CCn1c(=O)oc2ccccc21)NCc1cccs1`, the AC50 was 0.00398 µM [falling, full curve, poor fit].

On to `COc1cc(C2c3c(-c4cc(Cl)c(C)cc4O)n[nH]c3C(=O)N2Cc2cccnc2)ccc1O` (stereo not drawn), for which the half-maximal activity concentration (AC50) is 1.58 µM [rising, partial curve].

As to `COc1ccc(O)c(-c2cc(-c3cccc(Br)c3)n[nH]2)c1`, the AC50 was 25.1 µM [falling, single point].

With `COCc1nc2c([nH]1)c(=O)n(C)c(=O)n2CC(C)C`, the AC50 is 25.1 µM [rising, single point] and 2.51 µM [rising, full curve].

Turning to `CN1CCCN(CC(O)COCc2cccs2)CC1` (stereo not drawn), the AC50 was 5.01 µM [falling, single point].

For `CCOC(=O)CSC1=Nc2ccccc2C2=NC(CC(=O)NCc3ccc(OC)cc3)C(=O)N12` (stereo not drawn), the AC50 is 0.631 µM [falling, partial curve].

Regarding `CCOc1ccc(Cl)cc1S(=O)(=O)n1nnc2ccccc21`, the AC50 is 12.6 µM [falling, single point].

For `Cc1ccc(NC(=O)C2CCN(S(=O)(=O)c3c(C)n[nH]c3C)CC2)nc1`, the AC50 was 25.1 µM [falling, single point].
